# Laboratory results: PubChem BioAssay AID493014 (National Center for Advancing Translational Sciences (NCATS), 2011)
# The campaign covered roughly 340,000 compounds. About 170 (0.05%) were called active. This list was built around the results that the source calls inconclusive (neither active nor inactive); the mix of calls is not that of the screen. Calls come from the whole dose curve; as a rule, active = well fitted inhibition curve with a large enough effect in the signal ratio, with a control signal flat (not every such curve was filed as active); inconclusive = small, poorly fitted or top-dose-only effect, or effect the other way, or a change in a side signal; inactive = flat fitted curve, though single readings scatter; the % refers to the signal ratio. Potencies of inconclusive entries are doubtful fits and often do not repeat.
# Assay: qHTS Assay to Find Inhibitors of Chronic Active B-Cell Receptor Signaling;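 for activity change, negative = inhibition: plate controls were basal doxycycline-induced cells for no effect and cells given 10 µM MG132 for full effect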
# Conditions: ABC-DLBCL IkBa-CBG/CBR reporter, luminescence ratio (green luciferase fused to IkBa over red control in TMD8 lymphoma cells), 4 h; activity change, negative = inhibition: at 46.1 µM (top of the series) unless noted
# Outline: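 TMD8 ABC-DLBCL cells carrying doxycycline-inducible green luciferase fused to IkappaBalpha plus unfused red luciferase were exposed to compounds (up to 46 uM) for 4 hrs at 37C. Activity came from the overlap-corrected green/red luminescence ratio.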
# Potency is the fitted concentration of half-maximal effect.
Compound,"activity change, negative = inhibition",Potency
Cc1ccc(C(=O)N/C(=C\c2ccccc2F)c2nc(=S)[nH][nH]2)cc1,inactive: -1.73%,
CC(C)(C)c1ccc(C(=O)CCC(=O)NCc2ccccc2)cc1,,"inconclusive: 29.1 µM [falling, partial curve, poor fit]"
CCS(=O)(=O)n1nc(-c2ccccc2)nc1SCc1ccccc1,,"inconclusive: 16.4 µM [falling, partial curve]"
COc1ccccc1N1CCN(Cc2cnc3ccc(Cl)cn23)CC1,inactive: 0.361%,
c1ccc(-c2nc(-n3ccnc3)nc(-n3ccnc3)n2)cc1,inconclusive: 12.6%,
COc1ccc(C2C(C#N)=C(N)Oc3n[nH]c(C)c32)cc1CN1CCN(c2ccc(F)cc2)CC1 (stereo not given),inconclusive: -16.7%,
CCN(CC)CCN(C(=O)c1ccc(Br)s1)c1nc2cc3c(cc2s1)OCCO3,,"inconclusive: 11.2 µM [falling, single point]"
Cc1ccc(-c2nnn(CC(=O)N(CC(=O)NC3CCCC3)c3cnc4ccccc4c3)n2)o1,inconclusive: -2.98%,
COc1ccc(C(C(=O)NCc2ccccc2)N(Cc2ccc3c(c2)OCO3)C(=O)c2cnccn2)cc1 (stereo not given),inconclusive: -16.3%,
CCn1cc(C2=NC(C)CO2)c2ccccc21 (stereo not given),inconclusive: -15.9%,
Clc1ccc2nc(CSc3nc4ccccc4o3)cn2c1,inconclusive: 2.46%,
O=C(Cc1cccc2ccccc12)OCn1nnc2ccccc2c1=O,,"inconclusive: 14.6 µM [falling, partial curve]"
COc1ccc(-c2c(=O)n(OCc3ccccn3)c3ccccc3[n+]2[O-])cc1OC,,"inconclusive: 25.9 µM [falling, single point]"
COc1ccc(C(C)=O)cc1COC(=O)CNC(=O)c1ccc(F)cc1,inconclusive: 2.58%,
CCOC(=O)CCc1c(C(=O)OCC)[nH]c(CC)c1C(=O)OCc1ccccc1,inconclusive: 9.69%,
COc1cc(C(=O)O/N=C2\CCCc3c2ccc(OC)c3[N+](=O)[O-])cc(OC)c1OC,inactive: -25.3%,
CCOC(=O)Cn1c(=NC(=O)CSC(C)=O)sc2cc(OC)ccc21,inconclusive: 10.5%,
CC1(C)CC(=O)C(C=Nc2ccc(O)cc2)=C(O)C1,,"inconclusive: 22.4 µM [falling, single point]"
FC(F)(F)c1ccc(-n2cn[nH]c2=S)cc1,inconclusive: 5.99%,
COc1cc(/C=C/C(=O)O)cc(S(=O)(=O)NNC(=O)c2ccc3c(c2)OCO3)c1OC,inconclusive: -17.1%,
COc1ccccc1NC(=S)NCCSc1ccc(C)cc1,,"inconclusive: 7.31 µM [falling, partial curve, poor fit]"
Cc1ccc(S(=O)(=O)N2CCCCC2CCNC(=O)C(=O)Nc2ccccc2F)cc1 (stereo not given),inconclusive: 10.7%,
Cc1ccc(C)c(N2CCN(C(=O)c3ccc(CSc4nc5ccncc5[nH]4)cc3)CC2)c1,,"inconclusive: 23.1 µM [falling, single point]"
COc1ccc(/C=C2\CN(Cc3ccccc3)C/C(=C\c3ccc(OC)c(O)c3)C2=O)cc1O,,"inconclusive: 3.16 µM [falling, single point]"
COc1ccc(NS(=O)(=O)c2cn(C)cn2)cc1Cl,inactive: -27.4%,

# A draw from above in order of length of the SMILES, largest number first:
Compound,"activity change, negative = inhibition",Potency
CCS(=O)(=O)n1nc(-c2ccccc2)nc1SCc1ccccc1,,"inconclusive: 16.4 µM [falling, partial curve]"
COc1ccccc1N1CCN(Cc2cnc3ccc(Cl)cn23)CC1,inactive: 0.361%,
CCn1cc(C2=NC(C)CO2)c2ccccc21 (stereo not given),inconclusive: -15.9%,

# (list continues)

Compound,"activity change, negative = inhibition",Potency
CCC(C)(C(=O)NC1CCCCC1)N(Cc1ccco1)C(=O)CC1NC(=O)NC1=O (stereo not given),inconclusive: -0.563%,
Cn1c(CN2CCCC2)nc2cc(NC(=O)Nc3ccccc3)ccc21,inconclusive: -28%,
CS(=O)(=O)c1cccc(NC(=O)c2ccc(Cl)c(Cl)c2)c1,inconclusive: 5.64%,
COc1ccc(OCC(=O)OC(C)CN2CCCCC2)cc1 (stereo not given),inactive: -1.72%,
Cc1cc(C2=CC(C)(c3cc(C)oc3C)Nc3nc(C(F)(F)F)nn32)c(C)o1 (stereo not given),inconclusive: -11.5%,
NC(=O)CC(NC(=O)Cc1ccc(Br)cc1)c1ccc(N2CCC(Cc3ccccc3)CC2)c([N+](=O)[O-])c1 (stereo not given),inactive: 6.09%,
Cc1cc(C)cc(NC(=O)CSc2nccn2Cc2ccco2)c1,inconclusive: -21.5%,
O=C(CCCN1C(=O)c2ccccc2C1=O)OC1CSCC1NC(=O)c1ccccc1 (stereo not given),,"inconclusive: 2.51 µM [rising, full curve, poor fit]"
COc1ccc(C(C(=O)NCC2CCCO2)N(Cc2cccs2)C(=O)c2snc(C(N)=O)c2N)cc1OC (stereo not given),,"inconclusive: 5.62 µM [falling, partial curve, poor fit]"
CC(C)(C=O)Cc1cc(C(C)(C)C)c(O)c(C(C)(C)C)c1,inconclusive: 2.28%,
c1ccc(-c2ccc(SCc3cccnc3)nn2)nc1,inconclusive: -0.817%,
O=C(CSc1n[nH]c(-c2ccccn2)n1)Nc1ccccc1F,inactive: -6.39%,
COc1ccc(-c2sc3cc4c(cc3c2C#Cc2cncn2C)OCO4)cc1,inconclusive: 4.51%,
CCc1ccc(NC(=O)C2CCN(S(=O)(=O)c3cccs3)CC2)cc1,inactive: 8.68%,
O=C1C2C3C=CC(C3)C2C(=O)N1c1ccc(Cc2ccncc2)cc1 (stereo not given),inactive: 1.63%,
CCOC(=O)N(C)OC(=O)Nc1ccc(Cl)c(Cl)c1,inconclusive: 7.71%,
Cc1cc(NC(=O)CSc2nc(-c3cccs3)cc(C(F)(F)F)n2)no1,inconclusive: -3.76%,
Cc1cc2ccccn2c1C(=O)Nc1ccc(Cl)cc1,,"inconclusive: 20 µM [falling, single point]"
C[C@@]12C(=O)Nc3cc(F)ccc3C(=O)N1[C@H]1c3ccccc3OC[C@@H]1[C@@H]2c1ccccc1,inconclusive: 6.93%,
CCOc1ccc(NC(=O)C2CC(=O)NC(N3CCc4ccccc43)=N2)cc1 (stereo not given),inconclusive: 12.3%,
CC1(C)ON(C2CCCCC2)[C@H]2c3nc4ccccc4n3C[C@H]21,inconclusive: -17.3%,
CC(C)n1c(=S)[nH]c2ccccc2c1=O,,"inconclusive: 31.6 µM [cytotoxic, single point]"
CCCOc1cccc(C(=O)N/N=C/c2coc3ccccc3c2=O)c1,,"inconclusive: 2.82 µM [falling, full curve]"
CCN1CCN(CC(=O)Nc2cccc(C)c2C)C(=O)C1=O,inconclusive: 9.16%,
Cc1cccc(-c2nnc(SCc3nc4ccccc4[nH]3)n2Cc2ccco2)c1,inactive: 4.18%,
